{
  "sequences": {"note": "Chains of the proteins cited; added tags and fusions are not shown. Lines headed by an entry give the natural chain unless they say otherwise; changes in a name come on top. A line that says so, or that is headed by a name, gives the form on record, which may keep a tag or linker. Residues count along the entry.", "GST-WW fusion protein (all four WW-domains of human NEDD4 fused to glutathione S-transferase) (P46934, residues 610-925)": "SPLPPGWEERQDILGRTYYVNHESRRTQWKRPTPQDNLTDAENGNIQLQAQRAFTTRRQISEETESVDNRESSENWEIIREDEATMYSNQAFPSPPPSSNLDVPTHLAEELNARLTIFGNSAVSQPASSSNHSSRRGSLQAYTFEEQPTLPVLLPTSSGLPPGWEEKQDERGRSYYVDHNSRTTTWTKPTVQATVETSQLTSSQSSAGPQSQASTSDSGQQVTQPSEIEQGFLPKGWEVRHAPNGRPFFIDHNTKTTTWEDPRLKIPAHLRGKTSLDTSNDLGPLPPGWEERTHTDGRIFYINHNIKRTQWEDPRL"},
  "source": "patent US20040092469A1",
  "key": {"[1]": {"biological_target": "GST-WW fusion protein (all four WW-domains of human NEDD4 fused to glutathione S-transferase) (human) (UniProt P46934)", "test": "GST pull-down of in vitro translated [35S]Met-labeled protein (FIG. 6, lane 1)"}, "[2]": {"biological_target": "NEDD4-GFP fusion protein (human) (UniProt P46934)", "test": "co-immunoprecipitation from 293 cells, anti-GFP IP and anti-V5 blot (FIG. 7, lane 1)"}},
  "note": "No constants are given. Whether binding was seen depends on the method and setting. Binding seen in cells or lysates may run through a third protein. Some binding calls cover weakened binding; strength is not graded here. Where a sequence is shown, tags or fusion partners need not be part of it.",
  "data": [
    {"binder": "PMEPA1-V5 fusion protein (protein, not shown: small tags and cut ends, [35S]methionine-labeled in the GST pull-down assay) MAELEFVQIIIIVVVMMVMVVVITCLLSHYKLSARSFISRHSQGRRREDALSSEGCLWPSESTVSGNGIPEPQVYAPPRPTDRLAVPPFAQRERFHRFQPTYPYLQHEIDLPPTISLSDGEEPPPYQGPCTLQLRDPEQQLELNRESVRAPPNRTIFDSDLMDSARLGGPCPPSSNSGISATCYGSGGRMEGPPPTYSEVIGHYPGSSFQHQQSSGPPSLLEGTRLHHTHIAPLESAAIWSKEKDKQKGHPL", "values": [
      {"measurement": "binding", "setting": "[1]", "value": "binds"},
      {"measurement": "binding", "setting": "[2]", "value": "binds"}
    ]}
  ]
}
